Reference: the supplement of paper PMC12889115
Some of the results follow. These are raw signals, not scaled to a control.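 First-pass screen: polymyxin B was added at a level that permeabilizes the Salmonella outer membrane while sparing the inner membrane. DMSO wells, with and without polymyxin B, defined maximum growth. Because plates differed from one another, each plate's data were ranked separately and the compounds with the lowest OD600 were carried forward as hits.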

Tested on: Salmonella enterica serovar Typhimurium SL1344
Experiment: bacterial growth OD600 after 18 h with compound and polymyxin B; higher = more bacterial growth (less inhibition)
Settings: 50 µM, Mueller-Hinton broth

| SMILES | bacterial growth OD600 (polymyxin B 1 µg/mL) | bacterial growth OD600 (polymyxin B 0.75 µg/mL) |
| --- | --- | --- |
| O=C1CCC(C(=O)N2CCC(OCc3ccccc3)CC2)CN1Cc1ccccn1 (stereo not given) | 0.856 |  |
| CC#CCN1C(=O)NC(CCc2ccccc2)(C2CCN(Cc3ccc(CO)o3)CC2)C1=O (stereo not given) |  | 0.925 |
| CN(C)c1ncc(CN2CCOC(CCc3ccccc3)C2)s1 (stereo not given) |  | 0.978 |
| Cc1nccn1CCCNCc1c(C(=O)N2C[C@@H](C)O[C@@H](C)C2)nc2sccn12 | 0.645 |  |
| O=C(CSc1ccccn1)NC1CC(=O)N(CCc2ccc(F)cc2)C1 (stereo not given) | 1.05 |  |
| COc1cc(CN2CCN(Cc3cc(C)ccc3C)CC2CCO)cc(OC)c1 (stereo not given) | 0.902 |  |
| CSc1ccccc1C(=O)N1CCC(C(Cc2ccccc2F)N(C)C(=O)c2cccs2)CC1 (stereo not given) |  | -0.004 |
| COCCn1cnc2cc(NC(=O)C3CCCCC3)cc(C(=O)N3CCN(c4ccccc4)CC3)c21 |  | 0.758 |
| Cc1ccn2c(CNCc3ccc4c(c3)OCO4)c(C(=O)N3CCCCCC3)nc2c1 | 0.007 |  |
| Cc1cnc(C)c(-c2cccc3c2OC(CNC(=O)c2ccc(Cn4nc(C)cc4C)cc2)C3)n1 (stereo not given) |  | 0.812 |
| Cc1cc(C)n(-c2ccc(NC(=O)C3CCCCN3C(=O)CC(C)(C)C)cc2)n1 (stereo not given) | 0.953 |  |
| COc1cccc(CN2CCN(Cc3nc(-c4cccc5ccccc45)oc3C)CC2=O)c1 | 0.009 |  |
| CCCn1c(C)c(CC(=O)NC(C)COC)c2c1CC(C)(C)CC2=O (stereo not given) | 0.791 |  |
| O=C(Nc1cccc(-c2cscn2)c1)C1CCN(Cc2cc(C#CCO)cs2)CC1 |  | 0.716 |
| COc1ccc(O)c(CN2CCC(C(Cc3ccc(F)cc3)N(C)Cc3cn(C)nc3C)CC2)c1 (stereo not given) |  | 0.932 |
| CN1CCCC(CN(CCc2ccccc2)C(=O)Cc2c(F)cccc2F)C1 (stereo not given) | 0.829 |  |
| CSc1ccccc1C(=O)NCc1c(C)ncc2c1CCN(C(=O)c1cccc(C)c1C)C2 |  | 0.814 |
| OC1CCCN(C2CCN(c3nc4nonc4nc3NCc3cccs3)CC2)C1 (stereo not given) | 0.94 |  |
| CN(C)C1CCN(c2ccc(-c3nc(CCc4ccccc4)no3)cn2)C1 (stereo not given) | 0.969 |  |
| O=C(CCCN1CCCC1=O)NC1CCCN(C2CCCCCC2)C1 (stereo not given) | 1 |  |
| O=C(c1ccc(F)c(F)c1)N1CCCC(N2CCN(c3cccc(Cl)c3)CC2)C1 (stereo not given) | 0.79 |  |
| CN(C(=O)c1cccs1)C(Cc1ccccc1)C1CCN(C(=O)c2ccc(-n3cccn3)cc2)CC1 (stereo not given) |  | 0.002 |
| Cc1cccn2c(CN(C)CC3CCOCC3)c(C(=O)N(C)CCc3ccccc3)nc12 |  | 0.764 |
| C=CCNC(=O)c1coc(COc2cccc(C(F)(F)F)c2)n1 | 0.827 |  |
| CSc1ccc(CC(=O)N2CCCC(CO)(CCOc3ccccc3)C2)cc1 (stereo not given) | 0.67 |  |
| Cc1oc(-c2cccc(NC(=O)C3CCCN(C)C3)c2)nc1CNC(=O)Cc1ccc2c(c1)OCO2 (stereo not given) |  | 0.98 |
| COC(=O)CCC(=O)NC1CC(C)(C)Cc2nc(C(C)(C)C)ncc21 (stereo not given) |  | 0.817 |
| O=C(c1ccccc1OC1CCN(Cc2cccc3c2OCO3)CC1)N1CCCCC1 | 0.905 |  |
| CN(C(=O)c1cn(Cc2ccccc2Cl)nn1)C1CCCCC1 | 0.789 |  |
| COc1ccc(C(CC(=O)N(C)Cc2cnccn2)c2ccccc2)cc1 (stereo not given) | 0.848 |  |

2 records picked at random from those above:

| SMILES | bacterial growth OD600 (polymyxin B 1 µg/mL) | bacterial growth OD600 (polymyxin B 0.75 µg/mL) |
| --- | --- | --- |
| COc1ccc(C(CC(=O)N(C)Cc2cnccn2)c2ccccc2)cc1 (stereo not given) | 0.848 |  |
| CC#CCN1C(=O)NC(CCc2ccccc2)(C2CCN(Cc3ccc(CO)o3)CC2)C1=O (stereo not given) |  | 0.925 |
